Test results: article PMC2671555
Results are given in words; binding and its absence hold for the method and conditions named. Binding seen in cells or lysates may run through a third protein. Some results given as binding are weak or reduced against the parent protein; the word gives no strength.

Chains of the proteins cited; added tags and fusions are not shown. Lines headed by an entry give the natural chain unless they say otherwise; changes in a name come on top. A line that says so, or that is headed by a name, gives the form on record, which may keep a tag or linker.
Period (PER) M560D, tagged with HA or c-myc at the C terminus (P07663, form named): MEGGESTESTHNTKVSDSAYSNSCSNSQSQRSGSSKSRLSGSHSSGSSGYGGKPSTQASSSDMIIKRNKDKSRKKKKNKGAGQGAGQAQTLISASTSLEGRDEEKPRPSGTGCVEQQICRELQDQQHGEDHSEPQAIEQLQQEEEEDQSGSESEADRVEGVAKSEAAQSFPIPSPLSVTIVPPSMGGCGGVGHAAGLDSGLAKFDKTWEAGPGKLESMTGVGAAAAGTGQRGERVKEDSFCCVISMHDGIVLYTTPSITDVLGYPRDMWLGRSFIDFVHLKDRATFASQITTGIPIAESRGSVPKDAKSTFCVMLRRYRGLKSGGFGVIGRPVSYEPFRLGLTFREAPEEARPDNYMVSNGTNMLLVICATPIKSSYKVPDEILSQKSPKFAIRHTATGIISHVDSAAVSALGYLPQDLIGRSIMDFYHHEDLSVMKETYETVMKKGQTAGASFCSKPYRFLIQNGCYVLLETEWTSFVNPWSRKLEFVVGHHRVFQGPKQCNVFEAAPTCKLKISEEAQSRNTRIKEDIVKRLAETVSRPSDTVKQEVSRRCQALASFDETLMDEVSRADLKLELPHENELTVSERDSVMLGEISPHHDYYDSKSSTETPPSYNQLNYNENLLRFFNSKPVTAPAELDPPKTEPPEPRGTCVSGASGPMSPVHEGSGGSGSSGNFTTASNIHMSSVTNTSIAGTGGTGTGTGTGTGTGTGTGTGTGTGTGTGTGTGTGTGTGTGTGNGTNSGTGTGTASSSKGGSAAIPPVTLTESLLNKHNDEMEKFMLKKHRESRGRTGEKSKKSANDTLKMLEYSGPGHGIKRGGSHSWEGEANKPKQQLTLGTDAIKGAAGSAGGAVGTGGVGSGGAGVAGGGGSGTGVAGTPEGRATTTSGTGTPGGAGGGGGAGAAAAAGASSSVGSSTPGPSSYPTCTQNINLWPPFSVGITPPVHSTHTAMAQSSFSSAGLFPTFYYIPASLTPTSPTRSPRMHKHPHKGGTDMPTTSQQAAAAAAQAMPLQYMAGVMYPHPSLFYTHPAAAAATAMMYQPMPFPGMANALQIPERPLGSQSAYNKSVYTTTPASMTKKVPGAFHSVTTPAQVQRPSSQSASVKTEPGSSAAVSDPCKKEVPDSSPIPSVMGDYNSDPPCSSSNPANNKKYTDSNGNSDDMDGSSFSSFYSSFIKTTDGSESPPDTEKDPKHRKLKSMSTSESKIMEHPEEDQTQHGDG

Target: Period (PER) M560D, tagged with HA or c-myc at the C terminus (Drosophila) (UniProt P07663)
Assay: co-IP; head extracts of per^01 flies double homozygous for HA- and c-myc-tagged PER transgenes, collected at ZT20 (also ZT16 and ZT2) in 12-h:12-h LD at 25 °C; anti-MYC antibody on Protein G Sepharose beads, 16 h at 4 °C; extraction buffer 20 mM Hepes pH 7.5, 100 mM KCl, 1 mM DTT, 5% glycerol, 0.05% Nonidet P40; blots with anti-HA and anti-TIM

B1: Timeless (TIM) (protein, UniProt P49021 1-1398)
chain: MDWLLATPQLYSAFSSLGCLEGDTYVVNPNALAILEEINYKLTYEDQTLRTFRRAIGFGQNVRSDLIPLLENAKDDAVLESVIRILVNLTVPVECLFSVDVMYRTDVGRHTIFELNKLLYTSKEAFTEARSTKSVVEYMKHILESDPKLSPHKCDQINNCLLLLRNILHIPETHAHCVMPMMQSMPHGISMQNTILWNLFIQSIDKLLLYLMTCPQRAFWGVTMVQLIALIYKDQHVSTLQKLLSLWFEASLSESSEDNESNTSPPKQGSGDSSPMLTSDPTSDSSDNGSNGRGMGGGMREGTAATLQEVSRKGQEYQNAMARVPADKPDGSEEASDMTGNDSEQPGSPEQSQPAGESMDDGDYEDQRHRQLNEHGEEDEDEDEVEEEEYLQLGPASEPLNLTQQPADKVNNTTNPTSSAPQGCLGNEPFKPPPPLPVRASTSAHAQMQKFNESSYASHVSAVKLGQKSPHAGQLQLTKGKCCPQKRECPSSQSELSDCGYGTQVENQESISTSSNDDDGPQGKPQHQKPPCNTKPRNKPRTIMSPMDKKELRRKKLVKRSKSSLINMKGLVQHTPTDDDISNLLKEFTVDFLLKGYSYLVEELHMQLLSNAKVPIDTSHFFWLVTYFLKFAAQLELDMEHIDTILTYDVLSYLTYEGVSLCEQLELNARQEGSDLKPYLRRMHLVVTAIREFLQAIDTYNKVTHLNEDDKAHLRQLQLQISEMSDLRCLFVLLLRRFNPSIHSKQYLQDLVVTNHILLLILDSSAKLGGCQTIRLSEHITQFATLEVMHYYGILLEDFNNNGEFVNDCIFTMMHHIGGDLGQIGVLFQPIILKTYSRIWEADYELCDDWSDLIEYVIHKFMNTPPKSPLTIPTTSLTEMTKEHNQEHTVCSWSQEEMDTLYWYYVQSKKNNDIVGKIVKLFSNNGNKLKTRISIIQQLLQQDIITLLEYDDLMKFEDAEYQRTLLTTPTSATTESGIEIKECAYGKPSDDVQILLDLIIKENKAQHLLWLQRILIECCFVKLTLRSGLKVPEGDHIMEPVAYHCICKQKSIPVVQWNNEQSTTMLYQPFVLLLHKLGIQLPADAGSIFARIPDYWTPETMYGLAKKLGPLDKLNLKFDASELEDATASSPSRYHHTGPRNSLSSVSSLDVDLGDTEELALIPEVDAAVEKAHAMASTPSPSEIFAVPKTKHCNSIIRYTPDPTPPVPNWLQLVMRSKCNHRTGPSGDPSDCIGSSSTTVDDEGFGKSISAATSQAASTSMSTVNPTTTLSLNMLNTFMGSHNENSSSSGCGGTVSSLSMVALMSTGAAGGGGNTSGLEMDVDASMKSSFERLEVNGSHFSRANNLDQEYSAMVASVYEKEKELNSDNVSLASDLTRMYVSDEDDRLERTEIRVPHYH
binding: binds
